Experimental data published in patent US20190169602.

Chains of the proteins cited; added tags and fusions are not shown. Lines headed by an entry give the natural chain unless they say otherwise; changes in a name come on top.
UniProt P07636: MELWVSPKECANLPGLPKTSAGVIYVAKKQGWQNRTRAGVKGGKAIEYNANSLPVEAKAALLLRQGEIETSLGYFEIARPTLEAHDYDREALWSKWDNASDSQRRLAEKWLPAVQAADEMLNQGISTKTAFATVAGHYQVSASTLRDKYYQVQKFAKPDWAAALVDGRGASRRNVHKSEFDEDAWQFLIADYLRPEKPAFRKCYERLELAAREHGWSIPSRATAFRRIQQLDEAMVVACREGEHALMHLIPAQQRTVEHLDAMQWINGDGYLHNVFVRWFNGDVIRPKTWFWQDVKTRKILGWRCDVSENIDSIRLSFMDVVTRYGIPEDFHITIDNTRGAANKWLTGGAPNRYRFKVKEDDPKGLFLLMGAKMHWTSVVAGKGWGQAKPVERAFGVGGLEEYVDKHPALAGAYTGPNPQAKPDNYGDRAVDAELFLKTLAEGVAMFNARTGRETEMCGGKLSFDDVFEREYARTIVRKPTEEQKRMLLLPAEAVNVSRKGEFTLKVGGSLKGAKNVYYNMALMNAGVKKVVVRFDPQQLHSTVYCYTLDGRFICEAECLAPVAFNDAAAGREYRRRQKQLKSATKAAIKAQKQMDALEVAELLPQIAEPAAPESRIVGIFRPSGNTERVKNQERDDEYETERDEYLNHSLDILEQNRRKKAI

Biological target: MuA transposase (UniProt P07636)
Experiment: activity assay
Conditions: MuA transposome formation 30 C 2 h; transposition into pUC19 confirmed by sequencing with MuA-Tn5 TSC; 25 mM Tris pH 8.0, 10 mM MgCl2, 110 mM NaCl; purified recombinant protein

Sequence: GATCTGAAGCGGCGCACGAAAAACGCGAAAGCGTTTCACGATAAATGCGAAAACAAAACCATCGCCGAGATTTGCCCGTAGATTTCAGTGCCGGTTAACTCCTCGAGCAATTCCGCGCGTTCTTTGGGTTTGGCATTCAGGAAGGCAGCAAATTAGATGTGTATAAGAGACAG (double strand)
- activity on this sequence: active
